Data published in paper PMC9266971.
No constants are given. Whether binding was seen depends on the method and setting. Binding seen in cells or lysates may run through a third protein. Some entries that bind do so weakly or less than the wild type.

By UniProt entry, the sequences of proteins in these tests, tags left out. Where a name states a change or a piece, a line headed by the entry shows the natural chain unless it says otherwise. Chains listed by the source or under a name are the forms on record and can include a tag or linker.
UniProt P26678: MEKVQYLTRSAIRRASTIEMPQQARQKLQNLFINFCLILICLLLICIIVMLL
GFP-PLN-R14del (P26678, form named): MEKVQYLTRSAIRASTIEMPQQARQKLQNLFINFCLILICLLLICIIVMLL
Sarcoplasmic reticulum calcium ATPase (SERCA2a), mouse heart (O55143-2, form named): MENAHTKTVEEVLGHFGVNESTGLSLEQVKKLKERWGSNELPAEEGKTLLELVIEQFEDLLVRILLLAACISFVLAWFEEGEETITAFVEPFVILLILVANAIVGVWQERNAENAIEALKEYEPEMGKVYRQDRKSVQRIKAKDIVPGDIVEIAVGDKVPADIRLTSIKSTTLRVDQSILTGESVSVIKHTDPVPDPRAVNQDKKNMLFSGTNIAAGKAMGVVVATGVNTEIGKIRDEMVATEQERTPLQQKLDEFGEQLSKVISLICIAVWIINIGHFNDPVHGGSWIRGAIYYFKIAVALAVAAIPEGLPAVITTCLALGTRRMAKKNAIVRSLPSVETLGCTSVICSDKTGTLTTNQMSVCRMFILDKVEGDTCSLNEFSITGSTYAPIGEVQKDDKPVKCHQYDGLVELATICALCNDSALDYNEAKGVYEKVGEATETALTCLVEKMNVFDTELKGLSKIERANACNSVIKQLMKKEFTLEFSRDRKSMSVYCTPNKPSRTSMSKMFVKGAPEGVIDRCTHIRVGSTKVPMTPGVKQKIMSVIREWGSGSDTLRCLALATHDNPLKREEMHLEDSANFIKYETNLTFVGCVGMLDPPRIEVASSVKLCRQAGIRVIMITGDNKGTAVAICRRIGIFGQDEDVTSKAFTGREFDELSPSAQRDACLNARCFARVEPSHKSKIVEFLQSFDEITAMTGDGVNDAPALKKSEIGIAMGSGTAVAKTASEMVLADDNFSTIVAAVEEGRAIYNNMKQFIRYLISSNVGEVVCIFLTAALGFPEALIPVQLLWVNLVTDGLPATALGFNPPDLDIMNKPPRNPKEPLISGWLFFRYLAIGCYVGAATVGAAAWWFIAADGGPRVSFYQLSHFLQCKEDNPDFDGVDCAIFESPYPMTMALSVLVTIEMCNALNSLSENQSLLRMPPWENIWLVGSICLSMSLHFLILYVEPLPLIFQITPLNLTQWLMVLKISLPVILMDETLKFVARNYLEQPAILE
UniProt O35387: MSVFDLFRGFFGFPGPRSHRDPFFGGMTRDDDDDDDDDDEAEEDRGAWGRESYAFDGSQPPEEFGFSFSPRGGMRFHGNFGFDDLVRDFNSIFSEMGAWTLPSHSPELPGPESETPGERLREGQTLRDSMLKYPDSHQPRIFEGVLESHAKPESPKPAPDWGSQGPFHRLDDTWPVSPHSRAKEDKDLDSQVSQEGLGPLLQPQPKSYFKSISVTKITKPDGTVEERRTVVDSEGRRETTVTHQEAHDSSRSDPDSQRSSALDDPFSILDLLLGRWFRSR
SERCA2a expressed from a plasmid in HEK 293 cells (P16615-2, form named): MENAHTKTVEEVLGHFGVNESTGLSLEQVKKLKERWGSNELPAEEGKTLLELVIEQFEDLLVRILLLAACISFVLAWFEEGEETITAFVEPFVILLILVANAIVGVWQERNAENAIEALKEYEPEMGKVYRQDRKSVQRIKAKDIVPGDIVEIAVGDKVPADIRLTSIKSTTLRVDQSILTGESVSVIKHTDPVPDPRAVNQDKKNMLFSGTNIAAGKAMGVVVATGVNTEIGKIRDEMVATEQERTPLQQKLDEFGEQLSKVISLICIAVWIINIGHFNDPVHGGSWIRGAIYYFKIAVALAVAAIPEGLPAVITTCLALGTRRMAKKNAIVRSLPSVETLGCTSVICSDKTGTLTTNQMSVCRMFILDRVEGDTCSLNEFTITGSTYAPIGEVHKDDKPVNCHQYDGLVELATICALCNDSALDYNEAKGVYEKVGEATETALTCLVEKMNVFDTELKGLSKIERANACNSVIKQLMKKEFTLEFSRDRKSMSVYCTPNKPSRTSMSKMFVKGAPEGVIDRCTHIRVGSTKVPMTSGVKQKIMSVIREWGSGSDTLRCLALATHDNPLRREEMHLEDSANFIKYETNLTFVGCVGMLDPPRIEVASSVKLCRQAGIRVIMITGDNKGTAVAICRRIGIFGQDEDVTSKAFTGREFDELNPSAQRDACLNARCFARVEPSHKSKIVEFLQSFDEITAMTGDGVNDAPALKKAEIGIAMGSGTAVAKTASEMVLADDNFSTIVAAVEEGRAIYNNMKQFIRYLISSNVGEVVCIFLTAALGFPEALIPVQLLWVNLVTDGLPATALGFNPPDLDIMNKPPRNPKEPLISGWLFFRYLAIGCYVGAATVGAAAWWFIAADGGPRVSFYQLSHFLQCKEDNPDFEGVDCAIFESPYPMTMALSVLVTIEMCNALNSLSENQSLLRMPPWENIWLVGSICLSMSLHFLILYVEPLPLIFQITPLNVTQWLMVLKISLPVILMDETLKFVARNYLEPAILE

Experiments:
[1] = target: GST-PLN-WT recombinant protein phosphorylated in vitro by PKA (UniProt P26678); assay: pull-down; equivalent amounts of GST-PLN-WT or GST-PLN-R14del on glutathione beads mixed with 0.5 mg wild-type mouse cardiac homogenate (10 mM NaPO4 pH 7.2, 2 mM EDTA, 10 mM NaN3, 120 mM NaCl, 1% NP-40), 4 °C, 16 h; Western blot; for Figure 3c the GST proteins were first treated with PKA; only the target purified
[2] = target: GST-PLN-R14del recombinant protein (UniProt P26678); assay: as above
[3] = target: GST-PLN-WT recombinant protein (UniProt P26678); assay: as above
GFP-PLN-R14del = GFP-PLN-R14del (UniProt P26678); assay: co-IP; GFP antibody and protein-A/G agarose on lysates (50 mM Tris HCl, 150 mM NaCl, 1% NP40) of HEK 293 cells co-transfected with GFP-PLN and SERCA2a, with or without 10 μM isoproterenol for 30 min at 37 °C; Western blot for SERCA2
GFP-PLN-WT = GFP-PLN-WT (UniProt P26678); assay: as above

Row | binding [1] | binding [2] | binding [3] | binding (GFP-PLN-R14del) | binding (GFP-PLN-WT) | Substance
1 | binds | binds | binds | – | – | Sarcoplasmic reticulum calcium ATPase (SERCA2a), mouse heart (from UniProt O55143-2 1-998)
2 | – | binds | binds | – | – | HS-1-associated protein X-1 (HAX-1), mouse heart (from UniProt O35387 1-280)
3 | – | – | – | binds | binds | SERCA2a expressed from a plasmid in HEK 293 cells (from UniProt P16615-2 1-997)
